Reference: publication PMC5851652

Amino acid sequences for entries named in this document (tags omitted).
UniProt P68104: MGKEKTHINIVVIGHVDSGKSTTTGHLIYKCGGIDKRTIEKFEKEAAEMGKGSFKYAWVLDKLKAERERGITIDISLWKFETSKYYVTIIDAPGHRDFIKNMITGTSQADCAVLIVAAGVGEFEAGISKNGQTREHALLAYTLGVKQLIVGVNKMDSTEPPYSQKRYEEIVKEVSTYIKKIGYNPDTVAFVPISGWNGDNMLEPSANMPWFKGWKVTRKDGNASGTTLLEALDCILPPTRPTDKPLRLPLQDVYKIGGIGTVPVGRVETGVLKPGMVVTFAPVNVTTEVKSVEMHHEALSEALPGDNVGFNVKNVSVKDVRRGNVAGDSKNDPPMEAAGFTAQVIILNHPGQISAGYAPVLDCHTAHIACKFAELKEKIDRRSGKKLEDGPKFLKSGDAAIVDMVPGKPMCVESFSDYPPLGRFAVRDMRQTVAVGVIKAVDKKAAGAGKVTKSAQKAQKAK
UniProt P04792: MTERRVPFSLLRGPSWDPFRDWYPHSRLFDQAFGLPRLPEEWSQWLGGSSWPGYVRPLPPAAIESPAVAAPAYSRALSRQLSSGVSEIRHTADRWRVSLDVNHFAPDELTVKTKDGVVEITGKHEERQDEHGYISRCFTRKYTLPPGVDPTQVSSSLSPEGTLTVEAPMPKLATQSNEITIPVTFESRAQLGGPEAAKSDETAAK
UniProt Q9NR30: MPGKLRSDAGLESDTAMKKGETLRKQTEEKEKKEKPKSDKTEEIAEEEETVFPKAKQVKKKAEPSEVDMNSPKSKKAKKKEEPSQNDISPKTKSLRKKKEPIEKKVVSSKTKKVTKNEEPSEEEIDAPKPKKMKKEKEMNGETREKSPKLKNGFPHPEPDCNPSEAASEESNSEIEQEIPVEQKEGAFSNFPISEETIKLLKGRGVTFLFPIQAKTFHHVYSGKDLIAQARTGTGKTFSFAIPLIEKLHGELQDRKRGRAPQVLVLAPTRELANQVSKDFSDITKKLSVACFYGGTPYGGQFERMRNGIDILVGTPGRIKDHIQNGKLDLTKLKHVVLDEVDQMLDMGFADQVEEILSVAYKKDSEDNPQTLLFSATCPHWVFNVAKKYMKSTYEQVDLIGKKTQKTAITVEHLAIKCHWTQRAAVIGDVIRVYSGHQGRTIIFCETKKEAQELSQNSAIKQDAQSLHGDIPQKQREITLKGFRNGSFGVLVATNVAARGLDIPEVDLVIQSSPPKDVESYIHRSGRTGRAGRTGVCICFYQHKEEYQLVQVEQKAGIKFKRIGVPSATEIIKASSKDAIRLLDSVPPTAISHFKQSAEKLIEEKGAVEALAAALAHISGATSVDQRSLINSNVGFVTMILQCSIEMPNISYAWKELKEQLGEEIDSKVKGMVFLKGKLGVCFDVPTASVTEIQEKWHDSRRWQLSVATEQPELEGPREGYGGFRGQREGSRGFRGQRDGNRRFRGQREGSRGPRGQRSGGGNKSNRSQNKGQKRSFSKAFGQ
UniProt P08670: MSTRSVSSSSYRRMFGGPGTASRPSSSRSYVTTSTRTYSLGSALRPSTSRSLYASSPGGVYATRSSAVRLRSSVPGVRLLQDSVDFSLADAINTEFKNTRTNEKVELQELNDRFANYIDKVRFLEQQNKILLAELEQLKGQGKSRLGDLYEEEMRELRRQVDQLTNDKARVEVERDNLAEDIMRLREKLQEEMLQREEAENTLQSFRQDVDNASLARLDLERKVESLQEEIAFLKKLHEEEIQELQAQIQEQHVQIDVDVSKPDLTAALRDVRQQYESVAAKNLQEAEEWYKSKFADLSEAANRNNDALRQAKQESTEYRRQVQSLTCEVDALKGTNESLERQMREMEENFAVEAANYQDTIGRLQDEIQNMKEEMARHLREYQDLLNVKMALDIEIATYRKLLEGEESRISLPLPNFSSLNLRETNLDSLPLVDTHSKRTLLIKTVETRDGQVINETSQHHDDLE
UniProt P67809: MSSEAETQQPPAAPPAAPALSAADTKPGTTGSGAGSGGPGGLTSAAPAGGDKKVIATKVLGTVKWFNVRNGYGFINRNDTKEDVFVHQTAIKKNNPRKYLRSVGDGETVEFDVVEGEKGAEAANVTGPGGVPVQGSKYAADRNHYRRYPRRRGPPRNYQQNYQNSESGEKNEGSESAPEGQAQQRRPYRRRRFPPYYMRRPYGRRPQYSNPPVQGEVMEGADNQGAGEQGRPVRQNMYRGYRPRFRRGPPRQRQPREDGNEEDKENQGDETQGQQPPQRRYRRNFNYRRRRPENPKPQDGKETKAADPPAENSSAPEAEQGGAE
UniProt P51114: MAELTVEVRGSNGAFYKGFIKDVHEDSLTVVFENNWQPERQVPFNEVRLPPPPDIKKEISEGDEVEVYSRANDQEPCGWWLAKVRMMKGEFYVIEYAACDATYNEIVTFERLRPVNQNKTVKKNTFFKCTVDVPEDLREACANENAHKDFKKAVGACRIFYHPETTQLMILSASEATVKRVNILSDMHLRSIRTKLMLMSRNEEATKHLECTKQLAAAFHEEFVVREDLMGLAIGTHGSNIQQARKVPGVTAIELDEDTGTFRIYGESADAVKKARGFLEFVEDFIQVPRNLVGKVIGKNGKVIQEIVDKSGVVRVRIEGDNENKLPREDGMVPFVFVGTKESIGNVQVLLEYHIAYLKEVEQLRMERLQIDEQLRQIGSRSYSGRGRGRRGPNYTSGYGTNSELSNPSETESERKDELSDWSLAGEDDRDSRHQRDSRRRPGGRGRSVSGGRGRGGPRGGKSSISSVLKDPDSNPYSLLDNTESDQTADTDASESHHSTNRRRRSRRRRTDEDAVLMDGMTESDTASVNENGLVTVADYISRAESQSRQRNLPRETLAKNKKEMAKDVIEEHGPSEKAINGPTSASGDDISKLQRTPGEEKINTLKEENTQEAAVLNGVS
UniProt P98175: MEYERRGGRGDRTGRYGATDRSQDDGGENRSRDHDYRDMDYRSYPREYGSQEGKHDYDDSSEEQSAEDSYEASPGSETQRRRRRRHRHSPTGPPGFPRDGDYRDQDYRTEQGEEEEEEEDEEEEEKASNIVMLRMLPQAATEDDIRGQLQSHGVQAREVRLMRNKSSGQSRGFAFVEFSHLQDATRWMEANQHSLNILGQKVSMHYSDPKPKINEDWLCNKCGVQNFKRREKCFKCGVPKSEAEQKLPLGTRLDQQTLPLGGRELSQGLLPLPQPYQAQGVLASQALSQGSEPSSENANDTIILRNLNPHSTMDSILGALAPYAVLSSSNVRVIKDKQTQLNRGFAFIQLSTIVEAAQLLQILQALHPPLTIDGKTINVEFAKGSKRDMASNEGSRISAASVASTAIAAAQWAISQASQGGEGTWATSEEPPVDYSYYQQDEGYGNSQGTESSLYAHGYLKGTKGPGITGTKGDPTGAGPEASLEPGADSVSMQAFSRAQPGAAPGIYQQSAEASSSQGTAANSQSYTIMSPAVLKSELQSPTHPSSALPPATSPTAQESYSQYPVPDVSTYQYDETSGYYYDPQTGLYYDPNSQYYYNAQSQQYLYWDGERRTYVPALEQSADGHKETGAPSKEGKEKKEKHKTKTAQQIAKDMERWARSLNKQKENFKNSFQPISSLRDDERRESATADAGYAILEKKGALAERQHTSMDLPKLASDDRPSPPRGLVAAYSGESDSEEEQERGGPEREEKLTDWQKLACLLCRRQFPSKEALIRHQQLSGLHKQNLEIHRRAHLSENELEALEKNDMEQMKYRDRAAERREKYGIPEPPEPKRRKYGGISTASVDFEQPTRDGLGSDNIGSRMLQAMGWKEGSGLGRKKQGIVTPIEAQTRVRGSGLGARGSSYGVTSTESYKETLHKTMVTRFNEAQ
UniProt P11940: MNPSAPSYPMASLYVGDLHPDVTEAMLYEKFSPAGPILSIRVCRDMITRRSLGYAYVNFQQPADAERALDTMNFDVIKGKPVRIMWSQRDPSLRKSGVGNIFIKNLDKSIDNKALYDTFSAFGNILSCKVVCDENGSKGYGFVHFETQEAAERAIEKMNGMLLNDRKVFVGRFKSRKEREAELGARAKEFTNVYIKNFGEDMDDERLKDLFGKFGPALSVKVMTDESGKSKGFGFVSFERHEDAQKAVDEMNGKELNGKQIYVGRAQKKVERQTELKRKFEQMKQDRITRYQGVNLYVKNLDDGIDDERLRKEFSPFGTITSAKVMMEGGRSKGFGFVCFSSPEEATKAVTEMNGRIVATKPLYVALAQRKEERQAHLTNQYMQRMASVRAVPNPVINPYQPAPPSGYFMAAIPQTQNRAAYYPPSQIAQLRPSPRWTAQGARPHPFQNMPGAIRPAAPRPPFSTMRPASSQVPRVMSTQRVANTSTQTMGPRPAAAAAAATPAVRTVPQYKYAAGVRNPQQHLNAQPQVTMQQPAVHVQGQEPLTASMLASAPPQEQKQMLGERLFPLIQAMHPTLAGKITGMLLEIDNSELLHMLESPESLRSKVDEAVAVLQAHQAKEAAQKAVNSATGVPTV
UniProt Q9NQT4: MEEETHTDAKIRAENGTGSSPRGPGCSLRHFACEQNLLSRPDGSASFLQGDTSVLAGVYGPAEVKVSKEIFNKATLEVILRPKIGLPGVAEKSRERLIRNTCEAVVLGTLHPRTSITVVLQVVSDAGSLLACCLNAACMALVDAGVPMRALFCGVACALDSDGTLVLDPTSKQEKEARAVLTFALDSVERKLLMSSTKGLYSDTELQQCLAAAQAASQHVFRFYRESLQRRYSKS
UniProt Q9BRT6: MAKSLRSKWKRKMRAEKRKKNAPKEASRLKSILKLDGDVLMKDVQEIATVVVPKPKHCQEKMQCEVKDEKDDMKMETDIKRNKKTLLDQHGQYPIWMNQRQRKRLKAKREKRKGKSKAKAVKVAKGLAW
UniProt Q5SSJ5: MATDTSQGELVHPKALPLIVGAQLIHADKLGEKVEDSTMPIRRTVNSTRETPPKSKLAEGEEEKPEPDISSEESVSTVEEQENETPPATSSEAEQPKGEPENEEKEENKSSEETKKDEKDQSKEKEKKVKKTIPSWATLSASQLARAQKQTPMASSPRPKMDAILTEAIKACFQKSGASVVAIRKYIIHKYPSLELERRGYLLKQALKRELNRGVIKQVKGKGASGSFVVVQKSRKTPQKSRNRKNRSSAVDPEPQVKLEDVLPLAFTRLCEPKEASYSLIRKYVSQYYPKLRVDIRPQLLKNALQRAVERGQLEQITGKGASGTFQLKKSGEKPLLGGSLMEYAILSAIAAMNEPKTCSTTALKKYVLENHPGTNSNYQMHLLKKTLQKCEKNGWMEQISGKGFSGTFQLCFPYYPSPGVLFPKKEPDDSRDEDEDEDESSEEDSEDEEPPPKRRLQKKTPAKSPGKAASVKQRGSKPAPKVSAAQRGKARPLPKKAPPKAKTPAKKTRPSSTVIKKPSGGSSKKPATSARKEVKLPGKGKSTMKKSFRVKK
UniProt Q7Z7K6: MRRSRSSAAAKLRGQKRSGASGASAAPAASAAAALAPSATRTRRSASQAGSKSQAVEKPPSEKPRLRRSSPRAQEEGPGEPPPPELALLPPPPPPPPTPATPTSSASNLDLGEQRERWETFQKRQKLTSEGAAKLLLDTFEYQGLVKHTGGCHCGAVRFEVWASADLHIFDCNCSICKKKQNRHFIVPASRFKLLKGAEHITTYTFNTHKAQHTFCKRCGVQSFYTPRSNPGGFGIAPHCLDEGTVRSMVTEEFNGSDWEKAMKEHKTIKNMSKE
UniProt P05387: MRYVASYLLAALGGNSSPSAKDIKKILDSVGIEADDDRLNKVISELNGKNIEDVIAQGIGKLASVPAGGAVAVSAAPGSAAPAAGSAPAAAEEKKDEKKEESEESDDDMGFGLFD

T1: OASL-myc (human) (UniProt Q15646)
T1 sequence: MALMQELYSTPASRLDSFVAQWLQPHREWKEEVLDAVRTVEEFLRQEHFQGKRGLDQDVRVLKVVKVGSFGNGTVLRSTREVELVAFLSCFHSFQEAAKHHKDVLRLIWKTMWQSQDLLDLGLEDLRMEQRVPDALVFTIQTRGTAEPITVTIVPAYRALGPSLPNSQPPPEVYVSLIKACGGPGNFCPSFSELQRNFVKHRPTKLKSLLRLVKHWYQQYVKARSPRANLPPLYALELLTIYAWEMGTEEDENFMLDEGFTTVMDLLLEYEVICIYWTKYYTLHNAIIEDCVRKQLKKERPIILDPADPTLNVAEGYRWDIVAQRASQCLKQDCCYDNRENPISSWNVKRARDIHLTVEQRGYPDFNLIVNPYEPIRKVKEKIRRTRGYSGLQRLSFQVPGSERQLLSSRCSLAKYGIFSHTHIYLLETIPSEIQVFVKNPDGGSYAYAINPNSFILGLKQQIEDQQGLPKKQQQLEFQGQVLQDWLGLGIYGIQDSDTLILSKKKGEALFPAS

B1: Uncharacterized protein C7orf50 (protein, UniProt Q9BRJ6 1-194)
chain: MAKQKRKVPEVTEKKNKKLKKASAEGPLLGPEAAPSGEGAGSKGEAVLRPGLDAEPELSPEEQRVLERKLKKERKKEERQRLREAGLVAQHPPARRSGAELALDYLCRWAQKHKNWRFQKTRQTWLLLHMYDSDKVPDEHFSTLLAYLEGLQGRARELTVQKAEALMRELDEEGSDPPLPGRAQRIRQVLQLLS
B2: Putative oxidoreductase GLYR1 (protein, UniProt Q49A26 1-553)
chain: MAAVSLRLGDLVWGKLGRYPPWPGKIVNPPKDLKKPRGKKCFFVKFFGTEDHAWIKVEQLKPYHAHKEEMIKINKGKRFQQAVDAVEEFLRRAKGKDQTSSHNSSDDKNRRNSSEERSRPNSGDEKRKLSLSEGKVKKNMGEGKKRVSSGSSERGSKSPLKRAQEQSPRKRGRPPKDEKDLTIPESSTVKGMMAGPMAAFKWQPTASEPVKDADPHFHHFLLSQTEKPAVCYQAITKKLKICEEETGSTSIQAADSTAVNGSITPTDKKIGFLGLGLMGSGIVSNLLKMGHTVTVWNRTAEKCDLFIQEGARLGRTPAEVVSTCDITFACVSDPKAAKDLVLGPSGVLQGIRPGKCYVDMSTVDADTVTELAQVIVSRGGRFLEAPVSGNQQLSNDGMLVILAAGDRGLYEDCSSCFQAMGKTSFFLGEVGNAAKMMLIVNMVQGSFMATIAEGLTLAQVTGQSQQTLLDILNQGQLASIFLDQKCQNILQGNFKPDFYLKYIQKDLRLAIALGDAVNHPTPMAAAANEVYKRAKALDQSDNDMSAVYRAYIH
B3: Nucleolar protein 16 (protein, UniProt Q9Y3C1 1-178)
chain: MPKAKGKTRRQKFGYSVNRKRLNRNARRKAAPRIECSHIRHAWDHAKSVRQNLAEMGLAVDPNRAVPLRKRKVKAMEVDIEERPKELVRKPYVLNDLEAEASLPEKKGNTLSRDLIDYVRYMVENHGEDYKAMARDEKNYYQDTPKQIRSKINVYKRFYPAEWQDFLDSLQKRKMEVE
B4: M-phase phosphoprotein 6 (protein, UniProt Q99547 1-160)
chain: MAAERKTRLSKNLLRMKFMQRGLDSETKKQLEEEEKKIISEEHWYLDLPELKEKESFIIEEQSFLLCEDLLYGRMSFRGFNPEVEKLMLQMNAKHKAEEVEDETVELDVSDEEMARRYETLVGTIGKKFARKRDHANYEEDENGDITPIKAKKMFLKPQD
B5: Double-stranded RNA-binding protein Staufen homolog 2 (protein, UniProt Q9NUL3 1-570)
chain: MANPKEKTAMCLVNELARFNRVQPQYKLLNERGPAHSKMFSVQLSLGEQTWESEGSSIKKAQQAVANKALTESTLPKPVQKPPKSNVNNNPGSITPTVELNGLAMKRGEPAIYRPLDPKPFPNYRANYNFRGMYNQRYHCPVPKIFYVQLTVGNNEFFGEGKTRQAARHNAAMKALQALQNEPIPERSPQNGESGKDVDDDKDANKSEISLVFEIALKRNMPVSFEVIKESGPPHMKSFVTRVSVGEFSAEGEGNSKKLSKKRAATTVLQELKKLPPLPVVEKPKLFFKKRPKTIVKAGPEYGQGMNPISRLAQIQQAKKEKEPDYVLLSERGMPRRREFVMQVKVGNEVATGTGPNKKIAKKNAAEAMLLQLGYKASTNLQDQLEKTGENKGWSGPKPGFPEPTNNTPKGILHLSPDVYQEMEASRHKVISGTTLGYLSPKDMNQPSSSFFSISPTSNSSATIARELLMNGTSSTAEAIGLKGSSPTPPCSPVQPSKQLEYLARIQGFQAALSALKQFSEQGLDPIDGAMNIEKGSLEKQAKHLREKADNNQAPPGSIAQDCKKSNSAV
B6: rRNA 2'-O-methyltransferase fibrillarin (protein, UniProt P22087 1-321)
chain: MKPGFSPRGGGFGGRGGFGDRGGRGGRGGFGGGRGRGGGFRGRGRGGGGGGGGGGGGGRGGGGFHSGGNRGRGRGGKRGNQSGKNVMVEPHRHEGVFICRGKEDALVTKNLVPGESVYGEKRVSISEGDDKIEYRAWNPFRSKLAAAILGGVDQIHIKPGAKVLYLGAASGTTVSHVSDIVGPDGLVYAVEFSHRSGRDLINLAKKRTNIIPVIEDARHPHKYRMLIAMVDVIFADVAQPDQTRIVALNAHTFLRNGGHFVISIKANCIDSTASAEAVFASEVKKMQQENMKPQEQLTLEPYERDHAVVVGVYRPPPKVKN
B7: Ataxin-2-like protein (protein, UniProt Q8WWM7 1-1075)
chain: MLKPQPLQQPSQPQQPPPTQQAVARRPPGGTSPPNGGLPGPLATSAAPPGPPAAASPCLGPVAAAGSGLRRGAEGILAPQPPPPQQHQERPGAAAIGSARGQSTGKGPPQSPVFEGVYNNSRMLHFLTAVVGSTCDVKVKNGTTYEGIFKTLSSKFELAVDAVHRKASEPAGGPRREDIVDTMVFKPSDVMLVHFRNVDFNYATKDKFTDSAIAMNSKVNGEHKEKVLQRWEGGDSNSDDYDLESDMSNGWDPNEMFKFNEENYGVKTTYDSSLSSYTVPLEKDNSEEFRQRELRAAQLAREIESSPQYRLRIAMENDDGRTEEEKHSAVQRQGSGRESPSLASREGKYIPLPQRVREGPRGGVRCSSSRGGRPGLSSLPPRGPHHLDNSSPGPGSEARGINGGPSRMSPKAQRPLRGAKTLSSPSNRPSGETSVPPPPAVGRMYPPRSPKSAAPAPISASCPEPPIGSAVPTSSASIPVTSSVSDPGVGSISPASPKISLAPTDVKELSTKEPGRTLEPQELARIAGKVPGLQNEQKRFQLEELRKFGAQFKLQPSSSPENSLDPFPPRILKEEPKGKEKEVDGLLTSEPMGSPVSSKTESVSDKEDKPPLAPSGGTEGPEQPPPPCPSQTGSPPVGLIKGEDKDEGPVAEQVKKSTLNPNAKEFNPTKPLLSVNKSTSTPTSPGPRTHSTPSIPVLTAGQSGLYSPQYISYIPQIHMGPAVQAPQMYPYPVSNSVPGQQGKYRGAKGSLPPQRSDQHQPASAPPMMQAAAAAGPPLVAATPYSSYIPYNPQQFPGQPAMMQPMAHYPSQPVFAPMLQSNPRMLTSGSHPQAIVSSSTPQYPSAEQPTPQALYATVHQSYPHHATQLHAHQPQPATTPTGSQPQSQHAAPSPVQHQAGQAPHLGSGQPQQNLYHPGALTGTPPSLPPGPSAQSPQSSFPQPAAVYAIHHQQLPHGFTNMAHVTQAHVQTGITAAPPPHPGAPHPPQVMLLHPPQSHGGPPQGAVPQSGVPALSASTPSPYPYIGHPQGEQPGQAPGFPGGADDRIREFSLAGGIWHGRAEGLQVGQDARVLGGE
B8: Ribosome biogenesis protein BRX1 homolog (protein, UniProt Q8TDN6 1-353)
chain: MAATKRKRRGGFAVQAKKPKRNEIDAEPPAKRHATAEEVEEEERDRIPGPVCKGKWKNKERILIFSSRGINFRTRHLMQDLRMLMPHSKADTKMDRKDKLFVINEVCEMKNCNKCIYFEAKKKQDLYMWLSNSPHGPSAKFLVQNIHTLAELKMTGNCLKGSRPLLSFDPAFDELPHYALLKELLIQIFSTPRYHPKSQPFVDHVFTFTILDNRIWFRNFQIIEEDAALVEIGPRFVLNLIKIFQGSFGGPTLYENPHYQSPNMHRRVIRSITAAKYREKQQVKDVQKLRKKEPKTLLPHDPTADVFVTPAEEKPIEIQWVKPEPKVDLKARKKRIYKRQRKMKQRMDSGKTK
B9: Coiled-coil domain-containing protein 137 (protein, UniProt Q6PK04 1-289)
chain: MAGAGRGAAVSRVQAGPGSPRRARGRQQVQPLGKQRPAPWPGLRSKEKKKVNCKPKNQDEQEIPFRLREIMRSRQEMKNPISNKKRKKAAQVTFRKTLEKEAKGEEPDIAVPKFKQRKGESDGAYIHRMQQEAQHVLFLSKNQAIRQPEVQAAPKEKSEQKKAKKAFQKRRLDKVRRKKEEKAADRLEQELLRDTVKFGEVVLQPPELTARPQRSVSKDQPGRRSQMLRMLLSPGGVSQPLTASLARQRIVEEERERAVQAYRALKQRQQQLHGERPHLTSRKKPEPQL
B10: Ribosome biogenesis regulatory protein homolog (protein, UniProt Q15050 1-365)
chain: MEGQSVEELLAKAEQDEAEKLQRITVHKELELQFDLGNLLASDRNPPTGLRCAGPTPEAELQALARDNTQLLINQLWQLPTERVEEAIVARLPEPTTRLPREKPLPRPRPLTRWQQFARLKGIRPKKKTNLVWDEVSGQWRRRWGYQRARDDTKEWLIEVPGNADPLEDQFAKRIQAKKERVAKNELNRLRNLARAHKMQLPSAAGLHPTGHQSKEELGRAMQVAKVSTASVGRFQERLPKEKVPRGSGKKRKFQPLFGDFAAEKKNQLELLRVMNSKKPQLDVTRATNKQMREEDQEEAAKRRKMSQKGKRKGGRQGPGGKRKGGPPSQGGKRKGGLGGKMNSGPPGLGGKRKGGQRPGGKRRK

Target: T1, OASL-myc (human)
Assay: affinity purification with mass spectrometry; q-AP-MS: SILAC-labelled HeLa S3 cells transfected with the myc-tagged bait or LacZ-myc (forward and crossover); NP-40 lysis buffer with benzonase, 1 h at 4°C; anti-c-myc microbeads; LC-MS/MS

binding	Molecule
binds	Elongation factor 1-alpha 1 (from UniProt P68104 1-462)
binds	Heat shock protein beta-1 (from UniProt P04792 1-205)
binds	Nucleolar RNA helicase 2 (from UniProt Q9NR30 1-783)
binds	Vimentin (from UniProt P08670 1-466)
binds	Nuclease-sensitive element-binding protein 1 (from UniProt P67809 1-324)
binds	Fragile X mental retardation syndrome-related protein 1 (from UniProt P51114 1-621)
binds	RNA-binding protein 10 (from UniProt P98175 1-930)
binds	Polyadenylate-binding protein 1 (from UniProt P11940 1-636)
binds	Exosome complex component RRP46 (from UniProt Q9NQT4 1-235)
binds	Protein LLP homolog (from UniProt Q9BRT6 1-129)
binds	Heterochromatin protein 1-binding protein 3 (from UniProt Q5SSJ5 1-553)
binds	Centromere protein V (from UniProt Q7Z7K6 1-275)
binds	B1
binds	B2
binds	B3
binds	B4
binds	B5
binds	B6
binds	B7
binds	B8
binds	B9
binds	B10

Molecule	binding
60S acidic ribosomal protein P2 (from UniProt P05387 1-115)	binds
60S acidic ribosomal protein P1 (from UniProt P05386 1-114)	binds

These are yes or no findings as the source states them, for the method shown. Binding seen in cells or lysates may run through a third protein. Here binding means that the protein was enriched with, or labelled near, the bait; the list need not be complete. Tags and fused reporters may be left off the sequences shown.
